Data: the supplement of paper PMC10470496
Where a name gives a salt, the structure may show the parent alone. Some of the results follow. Repeats are few or missing, and single values can be far off.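 The three strains are clinical Candida auris isolates from the CDC resistance isolate bank, from clades III, IV and I, grown in RPMI-1640 at 35°C. Growth is background-corrected OD600 relative to vehicle-only wells on the same plate; a hit meant over 50% inhibition in at least two strains plus a plate-corrected B-score above 0.1.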

Key:
Test in all cases: growth relative to vehicle control (OD600 ratio) (fraction); higher = less inhibition
Conditions in all cases: 24 h
C. auris AR-384 = tested on: C. auris AR-384
C. auris AR-386 = tested on: C. auris AR-386
C. auris AR-387 = tested on: C. auris AR-387

CC(C)n1c(/C=C/C(O)CC(O)CC(=O)O)c(-c2ccc(F)cc2)c2ccccc21 (stereo not drawn) [Fluvastatin Sodium]
growth (C. auris AR-384; 1 µM): 0.76 | growth (C. auris AR-384; 10 µM): 0.84 | growth (C. auris AR-386; 1 µM): 0.66 | growth (C. auris AR-386; 10 µM): 1.04 | growth (C. auris AR-387; 1 µM): 0.74 | growth (C. auris AR-387; 10 µM): 0.68

CNC(=O)CN(CCN(CCN(CC(=O)[O-])CC(=O)NC)CC(=O)[O-])CC(=O)[O-].O.[Gd+3] [Gadodiamide Hydrate]
growth (C. auris AR-384; 1 µM): 0.74 | growth (C. auris AR-384; 10 µM): 0.82 | growth (C. auris AR-386; 1 µM): 0.84 | growth (C. auris AR-386; 10 µM): 0.89 | growth (C. auris AR-387; 1 µM): 0.88 | growth (C. auris AR-387; 10 µM): 1.06

CN1CCC(=C2c3ccccc3C=Cc3ccccc32)CC1 [Cyproheptadine HCl]
growth (C. auris AR-384; 1 µM): 1 | growth (C. auris AR-384; 10 µM): 1.31 | growth (C. auris AR-386; 1 µM): 1.07 | growth (C. auris AR-386; 10 µM): 1.27 | growth (C. auris AR-387; 1 µM): 0.92 | growth (C. auris AR-387; 10 µM): 1.06

CCC1(c2c[nH]cn2)Cc2ccccc2C1 [Atipamezole hydrochloride]
growth (C. auris AR-384; 1 µM): 0.83 | growth (C. auris AR-384; 10 µM): 0.73 | growth (C. auris AR-386; 1 µM): 0.87 | growth (C. auris AR-386; 10 µM): 0.82 | growth (C. auris AR-387; 1 µM): 0.9 | growth (C. auris AR-387; 10 µM): 0.74

CCOC(=O)[C@H](CCc1ccccc1)N[C@H]1CS[C@H](c2cccs2)CN(CC(=O)O)C1=O [Temocapril HCl]
growth (C. auris AR-384; 1 µM): 0.9 | growth (C. auris AR-384; 10 µM): 0.94 | growth (C. auris AR-386; 1 µM): 0.92 | growth (C. auris AR-386; 10 µM): 0.63 | growth (C. auris AR-387; 1 µM): 1 | growth (C. auris AR-387; 10 µM): 0.87

NC(N)=Nc1nc(CSCC/C(N)=N/S(N)(=O)=O)cs1 [Famotidine]
growth (C. auris AR-384; 1 µM): 0.92 | growth (C. auris AR-384; 10 µM): 1.11 | growth (C. auris AR-386; 1 µM): 1.2 | growth (C. auris AR-386; 10 µM): 0.96 | growth (C. auris AR-387; 1 µM): 1.01 | growth (C. auris AR-387; 10 µM): 1.13

Nc1ccc(S(=O)(=O)Nc2ncccn2)cc1 [Sulfadiazine]
growth (C. auris AR-384; 1 µM): 0.92 | growth (C. auris AR-384; 10 µM): 1.11 | growth (C. auris AR-386; 1 µM): 0.78 | growth (C. auris AR-386; 10 µM): 0.67 | growth (C. auris AR-387; 1 µM): 0.7 | growth (C. auris AR-387; 10 µM): 0.9

Nc1ncn([C@H]2C[C@H](O)[C@@H](CO)O2)c(=O)n1 [Decitabine]
growth (C. auris AR-384; 1 µM): 1 | growth (C. auris AR-384; 10 µM): 1.02 | growth (C. auris AR-386; 1 µM): 1.19 | growth (C. auris AR-386; 10 µM): 1.42 | growth (C. auris AR-387; 1 µM): 0.96 | growth (C. auris AR-387; 10 µM): 1.27

CCCNC(=O)NS(=O)(=O)c1ccc(Cl)cc1 [Chlorpropamide]
growth (C. auris AR-384; 1 µM): 0.9 | growth (C. auris AR-384; 10 µM): 0.8 | growth (C. auris AR-386; 1 µM): 0.92 | growth (C. auris AR-386; 10 µM): 1.18 | growth (C. auris AR-387; 1 µM): 0.75 | growth (C. auris AR-387; 10 µM): 1.1

C[C@H]1[C@@H](O)O[C@@H]2O[C@@]3(C)CC[C@H]4[C@H](C)CC[C@@H]1[C@@]24OO3 [Dihydroartemisinin (DHA)]
growth (C. auris AR-384; 1 µM): 0.75 | growth (C. auris AR-384; 10 µM): 0.59 | growth (C. auris AR-386; 1 µM): 0.93 | growth (C. auris AR-386; 10 µM): 1.06 | growth (C. auris AR-387; 1 µM): 0.63 | growth (C. auris AR-387; 10 µM): 0.84

NCCCCCC(=O)O [(6-) ε-Aminocaproic acid]
growth (C. auris AR-384; 1 µM): 0.78 | growth (C. auris AR-384; 10 µM): 1.11 | growth (C. auris AR-386; 1 µM): 1.3 | growth (C. auris AR-386; 10 µM): 0.96 | growth (C. auris AR-387; 1 µM): 1.17 | growth (C. auris AR-387; 10 µM): 1.31

CC(C)NC[C@@H](O)COc1ccc(CC(N)=O)cc1 [(R)-(+)-Atenolol HCl]
growth (C. auris AR-384; 1 µM): 0.82 | growth (C. auris AR-384; 10 µM): 0.81 | growth (C. auris AR-386; 1 µM): 0.89 | growth (C. auris AR-386; 10 µM): 0.61 | growth (C. auris AR-387; 1 µM): 0.66 | growth (C. auris AR-387; 10 µM): 0.63

C[C@@H]1COC(Nc2ccc3ncnc(Nc4ccc(OCc5nccs5)c(Cl)c4)c3c2)=N1 [Varlitinib]
growth (C. auris AR-384; 1 µM): 0.92 | growth (C. auris AR-384; 10 µM): 0.8 | growth (C. auris AR-386; 1 µM): 0.92 | growth (C. auris AR-386; 10 µM): 1.21 | growth (C. auris AR-387; 1 µM): 1.02 | growth (C. auris AR-387; 10 µM): 0.75

Cn1c(=O)c2[nH]cnc2n(C)c1=O [Aminophylline]
growth (C. auris AR-384; 1 µM): 0.97 | growth (C. auris AR-384; 10 µM): 0.83 | growth (C. auris AR-386; 1 µM): 0.67 | growth (C. auris AR-386; 10 µM): 0.81 | growth (C. auris AR-387; 1 µM): 0.91 | growth (C. auris AR-387; 10 µM): 0.99

CCOc1ccc2ccccc2c1C(=O)N[C@@H]1C(=O)N2[C@@H]1SC(C)(C)[C@@H]2C(=O)O [Nafcillin Sodium]
growth (C. auris AR-384; 1 µM): 0.92 | growth (C. auris AR-384; 10 µM): 0.83 | growth (C. auris AR-386; 1 µM): 0.82 | growth (C. auris AR-386; 10 µM): 0.98 | growth (C. auris AR-387; 1 µM): 0.85 | growth (C. auris AR-387; 10 µM): 0.8

Cc1cncc(CN2CCC(=C3c4ccc(Cl)cc4CCc4cccnc43)CC2)c1 [Rupatadine Fumarate]
growth (C. auris AR-384; 1 µM): 1.1 | growth (C. auris AR-384; 10 µM): 1.04 | growth (C. auris AR-386; 1 µM): 0.9 | growth (C. auris AR-386; 10 µM): 0.92 | growth (C. auris AR-387; 1 µM): 0.85 | growth (C. auris AR-387; 10 µM): 0.8

COC(=O)Nc1nc2cc([S+]([O-])c3ccccc3)ccc2[nH]1 (stereo not drawn) [Oxfendazole]
growth (C. auris AR-384; 1 µM): 0.95 | growth (C. auris AR-384; 10 µM): 0.89 | growth (C. auris AR-386; 1 µM): 0.95 | growth (C. auris AR-386; 10 µM): 1 | growth (C. auris AR-387; 1 µM): 1.06 | growth (C. auris AR-387; 10 µM): 1.04

CC1(O)CCC(C(C)(C)O)CC1 (stereo not drawn) [Terpin hydrate]
growth (C. auris AR-384; 1 µM): 0.75 | growth (C. auris AR-384; 10 µM): 0.81 | growth (C. auris AR-386; 1 µM): 0.69 | growth (C. auris AR-386; 10 µM): 0.54 | growth (C. auris AR-387; 1 µM): 0.59 | growth (C. auris AR-387; 10 µM): 0.73

COc1cc(C(=O)NS(=O)(=O)c2ccccc2C)ccc1Cc1cn(C)c2ccc(NC(=O)OC3CCCC3)cc12 [Zafirlukast]
growth (C. auris AR-384; 1 µM): 0.79 | growth (C. auris AR-384; 10 µM): 0.51 | growth (C. auris AR-386; 1 µM): 0.74 | growth (C. auris AR-386; 10 µM): 0.72 | growth (C. auris AR-387; 1 µM): 0.93 | growth (C. auris AR-387; 10 µM): 0.74

C[C@@H]1O[C@@H](OC[C@H]2O[C@@H](Oc3c(-c4ccc(OCCO)c(OCCO)c4)oc4cc(OCCO)cc(O)c4c3=O)[C@H](O)[C@@H](O)[C@@H]2O)[C@H](O)[C@H](O)[C@H]1O [Troxerutin]
growth (C. auris AR-384; 1 µM): 0.99 | growth (C. auris AR-384; 10 µM): 0.95 | growth (C. auris AR-386; 1 µM): 1.13 | growth (C. auris AR-386; 10 µM): 1.16 | growth (C. auris AR-387; 1 µM): 1.28 | growth (C. auris AR-387; 10 µM): 1.27

CC[C@H]1OC(=O)[C@H](C)[C@@H](O[C@H]2C[C@@](C)(OC)[C@@H](O)[C@H](C)O2)[C@H](C)[C@@H](O[C@@H]2O[C@H](C)C[C@H](N(C)C)[C@H]2O)[C@](C)(O)C[C@@H](C)CN(C)[C@H](C)[C@@H](O)[C@]1(C)O [Azithromycin]
growth (C. auris AR-384; 1 µM): 0.69 | growth (C. auris AR-384; 10 µM): 0.83 | growth (C. auris AR-386; 1 µM): 0.84 | growth (C. auris AR-386; 10 µM): 0.82 | growth (C. auris AR-387; 1 µM): 0.78 | growth (C. auris AR-387; 10 µM): 0.77

O=S(=O)(O)Oc1ccc(C(c2ccc(OS(=O)(=O)O)cc2)c2ccccn2)cc1 [Sodium Picosulfate]
growth (C. auris AR-384; 1 µM): 0.97 | growth (C. auris AR-384; 10 µM): 1.03 | growth (C. auris AR-386; 1 µM): 0.84 | growth (C. auris AR-386; 10 µM): 0.58 | growth (C. auris AR-387; 1 µM): 0.72 | growth (C. auris AR-387; 10 µM): 0.72

C[N+](C)(C)CCOC(=O)CCC(=O)OCC[N+](C)(C)C [Succinylcholine Chloride Dihydrate]
growth (C. auris AR-384; 1 µM): 0.67 | growth (C. auris AR-384; 10 µM): 0.81 | growth (C. auris AR-386; 1 µM): 0.7 | growth (C. auris AR-386; 10 µM): 0.94 | growth (C. auris AR-387; 1 µM): 0.8 | growth (C. auris AR-387; 10 µM): 0.78

OC[C@@H](O)[C@H](O)[C@@H](O)CO [Xylitol]
growth (C. auris AR-384; 1 µM): 1.07 | growth (C. auris AR-384; 10 µM): 1.1 | growth (C. auris AR-386; 1 µM): 0.64 | growth (C. auris AR-386; 10 µM): 1.02 | growth (C. auris AR-387; 1 µM): 0.89 | growth (C. auris AR-387; 10 µM): 1.11

CC(=O)[C@H]1CC[C@H]2[C@@H]3CC=C4C[C@@H](O)CC[C@]4(C)[C@H]3CC[C@]12C [Pregnenolone]
growth (C. auris AR-384; 1 µM): 0.68 | growth (C. auris AR-384; 10 µM): 1.1 | growth (C. auris AR-386; 1 µM): 1.34 | growth (C. auris AR-386; 10 µM): 1.09 | growth (C. auris AR-387; 1 µM): 1.03 | growth (C. auris AR-387; 10 µM): 1.01

CCC(=O)OCC(=O)[C@@]1(OC(=O)CC)[C@@H](C)C[C@H]2[C@@H]3CCC4=CC(=O)C=C[C@]4(C)[C@@]3(Cl)[C@@H](O)C[C@@]21C [Beclomethasone dipropionate]
growth (C. auris AR-384; 1 µM): 1.03 | growth (C. auris AR-384; 10 µM): 0.69 | growth (C. auris AR-386; 1 µM): 0.96 | growth (C. auris AR-386; 10 µM): 0.86 | growth (C. auris AR-387; 1 µM): 0.75 | growth (C. auris AR-387; 10 µM): 0.51

Cc1c(C(=O)NN2CCCCC2)nn(-c2ccc(Cl)cc2Cl)c1-c1ccc(Cl)cc1 [Rimonabant]
growth (C. auris AR-384; 1 µM): 1.03 | growth (C. auris AR-384; 10 µM): 0.65 | growth (C. auris AR-386; 1 µM): 0.72 | growth (C. auris AR-386; 10 µM): 0.88 | growth (C. auris AR-387; 1 µM): 0.68 | growth (C. auris AR-387; 10 µM): 0.79

Cc1cn(-c2cc(NC(=O)c3ccc(C)c(Nc4nccc(-c5cccnc5)n4)c3)cc(C(F)(F)F)c2)cn1 [Nilotinib (AMN-107)]
growth (C. auris AR-384; 1 µM): 0.79 | growth (C. auris AR-384; 10 µM): 0.63 | growth (C. auris AR-386; 1 µM): 0.71 | growth (C. auris AR-386; 10 µM): 1.05 | growth (C. auris AR-387; 1 µM): 0.83 | growth (C. auris AR-387; 10 µM): 0.89
